{"source": "patent US20160369115A1", "about": "“POLARIZING PLATE COMPOSITION, POLARIZING PLATE PROTECTIVE FILM, POLARIZER, POLARIZING PLATE, LIQUID CRYSTAL DISPLAY DEVICE, AND COMPOUND USED IN THE LIQUID CRYSTAL DISPLAY DEVICE” (FUJIFILM Corporation, priority 2014, published 2016)", "key": {"[1]": {"test": "Bleed-out properties in polarizer (haze evaluation)", "settings": "haze of polarizing plate; additive in polarizer, added amount 1.0 per 100 parts by mass of polyvinyl alcohol resin"}, "[2]": {"test": "Bleed-out properties in adhesive layer (haze evaluation)", "settings": "additive in adhesive layer, added amount 10.0 per 100 parts by mass of the polyvinyl alcohol resin, film thickness 5 μm"}, "[3]": {"test": "Evaluation of light-fast adhesiveness of polarizing plate protective film with hardcoat layer", "settings": "additive in protective film: Cellulose acylate, 25 μm, added amount 4.0 per 100 parts by mass of film resin; light 96 hours, 60° C., 50% RH"}, "[4]": {"test": "Evaluation of durability of polarizing plate, additive in polarizer (Example 2)", "settings": "added amount 1.0 per 100 parts by mass of polyvinyl alcohol resin, 410 nm"}, "[5]": {"test": "Durability evaluation of polarizing plate, additive in polarizing plate protective film (Example 1)", "settings": "additive in protective film: Cellulose acylate, 25 μm, added amount 4.0 per 100 parts by mass of film resin; 410 nm"}, "[6]": {"test": "Evaluation of durability of polarizing plate, additive in adhesive layer (Example 3)", "settings": "added amount 10.0 per 100 parts by mass of the polyvinyl alcohol resin, film thickness 5 μm"}}}
{"smiles": "O=C1NC(=O)N(Cc2ccccc2)C(=O)C1c1ccccc1", "note": "(centres unmarked) [Organic acid 1, reference compound]", "values": [{"measurement": "Bleed out", "setting": "[1]", "result": "C (The haze was equal to or greater than 0.7%.)"}, {"measurement": "Bleed out", "setting": "[2]", "result": "C (The haze was equal to or greater than 0.7%.)"}, {"measurement": "Light-fast adhesiveness", "setting": "[3]", "result": "C (The number of cells peeled off among 100 cells was 21 to 30.)"}, {"measurement": "Durability of polarizer: amount of change of degree of polarization (%) 60° C., 95%, 500 hours", "setting": "[4]", "result": "A+ (The amount of change of the degree of polarization before and after the elapse of time was less than 0.05%.)"}, {"measurement": "Durability of polarizer: amount of change of degree of polarization (%) 60° C., 95%, 1,000 hours", "setting": "[4]", "result": "B (The amount of change of the degree of polarization before and after the elapse of time was equal to or greater than 4.0% and less than 6.0%.)"}, {"measurement": "Durability of polarizer: amount of change of degree of polarization (%) 80° C., Dry, 500 hours", "setting": "[4]", "result": "A+ (The amount of change of the degree of polarization before and after the elapse of time was less than 0.05%.)"}, {"measurement": "Durability of polarizer: amount of change of degree of polarization (%) 80° C., Dry, 1,000 hours", "setting": "[4]", "result": "B (The amount of change of the degree of polarization before and after the elapse of time was equal to or greater than 2.0% and less than 4.0%.)"}, {"measurement": "Durability of polarizer: amount of change of orthogonal transmittance (%) 60° C., 95%, 500 hours", "setting": "[4]", "result": "A+ (The amount of change of the orthogonal transmittance before and after the elapse of time was less than 0.1%.)"}, {"measurement": "Durability of polarizer: amount of change of orthogonal transmittance (%) 60° C., 95%, 1,000 hours", "setting": "[4]", "result": "B (The amount of change of the orthogonal transmittance before and after the elapse of time was equal to or greater than 1.0% and less than 1.6%.)"}, {"measurement": "Durability of polarizer: amount of change of orthogonal transmittance (%) 80° C., Dry 500 hours", "setting": "[4]", "result": "A+ (The amount of change of the orthogonal transmittance before and after the elapse of time was less than 0.05%.)"}, {"measurement": "Durability of polarizer: amount of change of orthogonal transmittance (%) 80° C., Dry, 1,000 hours", "setting": "[4]", "result": "B (The amount of change of the orthogonal transmittance before and after the elapse of time was equal to or greater than 0.3% and less than 0.4%.)"}, {"measurement": "Durability of polarizer: amount of change of orthogonal transmittance (%) 60° C., 95%, 500 hours", "setting": "[5]", "result": "A+ (The amount of change of the orthogonal transmittance before and after the elapse of time was less than 0.4%.)"}, {"measurement": "Durability of polarizer: amount of change of orthogonal transmittance (%) 60° C., 95%, 1,000 hours", "setting": "[5]", "result": "A (The amount of change of the orthogonal transmittance before and after the elapse of time was equal to or greater than 1.0% and less than 1.4%.)"}, {"measurement": "Durability of polarizer: amount of change of orthogonal transmittance (%) 80° C., Dry 500 hours", "setting": "[5]", "result": "A+ (The amount of change of the orthogonal transmittance before and after the elapse of time was less than 0.1%.)"}, {"measurement": "Durability of polarizer: amount of change of orthogonal transmittance (%) 80° C., Dry, 1,000 hours", "setting": "[5]", "result": "A (The amount of change of the orthogonal transmittance before and after the elapse of time was equal to or greater than 0.5% and less than 0.8%.)"}, {"measurement": "Durability of polarizer: amount of change of degree of polarization (%) 60° C., 95%, 500 hours", "setting": "[6]", "result": "A+ (The amount of change of the degree of polarization before and after the elapse of time was less than 0.05%.)"}, {"measurement": "Durability of polarizer: amount of change of degree of polarization (%) 60° C., 95%, 1,000 hours", "setting": "[6]", "result": "A (The amount of change of the degree of polarization before and after the elapse of time was equal to or greater than 1.0% and less than 4.0%.)"}, {"measurement": "Durability of polarizer: amount of change of degree of polarization (%) 80° C., Dry, 500 hours", "setting": "[6]", "result": "A+ (The amount of change of the degree of polarization before and after the elapse of time was less than 0.05%.)"}, {"measurement": "Durability of polarizer: amount of change of degree of polarization (%) 80° C., Dry, 1,000 hours", "setting": "[6]", "result": "A (The amount of change of the degree of polarization before and after the elapse of time was equal to or greater than 0.1% and less than 2.0%.)"}, {"measurement": "Durability of polarizer: amount of change of orthogonal transmittance (%) 60° C., 95%, 500 hours", "setting": "[6]; 410 nm", "result": "A+ (The amount of change of the orthogonal transmittance before and after the elapse of time was less than 0.1%.)"}, {"measurement": "Durability of polarizer: amount of change of orthogonal transmittance (%) 60° C., 95%, 1,000 hours", "setting": "[6]; 410 nm", "result": "A (The amount of change of the orthogonal transmittance before and after the elapse of time was equal to or greater than 0.5% and less than 1.0%.)"}, {"measurement": "Durability of polarizer: amount of change of orthogonal transmittance (%) 80° C., Dry 500 hours", "setting": "[6]; 410 nm", "result": "A+ (The amount of change of the orthogonal transmittance before and after the elapse of time was less than 0.05%.)"}, {"measurement": "Durability of polarizer: amount of change of orthogonal transmittance (%) 80° C., Dry, 1,000 hours", "setting": "[6]; 410 nm", "result": "A (The amount of change of the orthogonal transmittance before and after the elapse of time was equal to or greater than 0.1% and less than 0.3%.)"}]}
